This assay concerns the target MAT CR12 (human) (UniProt Q9Y5Y6). Kind of assay: solid-phase binding assay, ligand at 80 nM, CR protein coated on plate.

By UniProt entry, the sequences of proteins in these tests, tags left out. Where a name states a change or a piece, a line headed by the entry shows the natural chain unless it says otherwise.
UniProt Q9Y5Y6: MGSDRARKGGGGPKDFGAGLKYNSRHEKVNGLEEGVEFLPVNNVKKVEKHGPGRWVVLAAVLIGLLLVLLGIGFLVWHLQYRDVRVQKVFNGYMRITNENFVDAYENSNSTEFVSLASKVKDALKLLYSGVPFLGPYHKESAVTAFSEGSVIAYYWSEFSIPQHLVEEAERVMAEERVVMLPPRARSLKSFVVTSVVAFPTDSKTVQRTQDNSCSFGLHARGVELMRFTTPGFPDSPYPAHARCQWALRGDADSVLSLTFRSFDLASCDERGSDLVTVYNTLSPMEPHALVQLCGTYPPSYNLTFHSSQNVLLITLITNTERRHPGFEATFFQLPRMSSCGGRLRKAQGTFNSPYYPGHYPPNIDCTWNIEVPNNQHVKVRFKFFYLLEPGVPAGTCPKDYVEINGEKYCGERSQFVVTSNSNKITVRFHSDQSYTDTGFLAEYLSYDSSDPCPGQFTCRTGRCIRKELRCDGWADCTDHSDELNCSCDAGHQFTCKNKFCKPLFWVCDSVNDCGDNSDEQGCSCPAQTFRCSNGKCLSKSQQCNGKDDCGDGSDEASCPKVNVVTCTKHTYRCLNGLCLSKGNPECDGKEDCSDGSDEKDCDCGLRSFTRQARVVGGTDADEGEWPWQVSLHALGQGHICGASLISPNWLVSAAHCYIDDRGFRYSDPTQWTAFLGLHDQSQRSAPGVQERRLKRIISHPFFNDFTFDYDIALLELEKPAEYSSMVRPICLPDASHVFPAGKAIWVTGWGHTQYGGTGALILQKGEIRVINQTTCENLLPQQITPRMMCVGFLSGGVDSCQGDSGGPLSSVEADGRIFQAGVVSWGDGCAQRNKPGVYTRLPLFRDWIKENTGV

The source of these data is US20100210517A1.

No constants are given. Whether binding was seen depends on the method and setting. Some results given as binding are weak or reduced against the parent protein; the word gives no strength.

B1: MatRAP2 d3 (ligand, not shown: small tags and cut ends)
chain: LDRLRRVSHQGYSTEAEFEEPRVIDLWDLAQPANLTDKGLEAFREGLKHFLAKIEPHNHYQKQLETVREPLRYAESVGDGERVSRSHEKYALLEGRTRELGYTVKKHLQDLFGRISRAR
In the case of B1, the binding entry is listed as “binds”.
